B1: il10ra_site1_sap_22_mot_HHH_b2_07145_000000158_0001_24_40_H_._HHH_b1_07964_0001_0000100004_0000002_0_0001_af2pred_0001 (protein)
chain: SSSSSSSTEAVEEVARLLEEALRNPERAEELLEEAKRLAEEANNEVLRLQIEYVERLLSSSSSSS
B2: il10ra_site1_sap_21_mot_HHH_b1_08477_000000091_0001_40_57_H_._HHH_b1_05644_af2_0001_0000600034_0000001_0_0001 (protein)
chain: SSSSSSSDVEEEVRELLEEAEEDPRHANELLQEAVRLAFRAQDPELLREVWRVVERLASSSSSSS
B3: il10ra_site1_sap_17_mot_HHH_b2_07488_000000216_0001_1_17_H_._HHH_b1_06410_0001_0000100008_0000001_0_0001_1 (protein)
chain: SSSSSSDARHEIYRLLKEAVEIDDPEEAEEVLEEAERLAREENNRVLLHVIEFLLRQIRSSSSSS
B4: il10ra_site1_sap_15_mot_HHH_b1_06804_000000054_0001_40_54_H_._HHH_b1_05559_0001_0000100001_0000001_0_0001_af2pred_0001 (protein)
chain: SSSSSERREEVIRLLREALQLLYEGDEEEARRLAEEAEELAEEANSPLLKLLVERLKEEINSSSS
B5: il10ra_site1_sap_12_mot_HHH_b2_05686_000000041_0001_1_18_H_._HHH_b1_06318_0001_0000300019_0000002_0_0001_af2pred_0001 (protein)
chain: SSSSDLEEEVEELLEEAKRIEDPEEVRKLLKEAARIAARARNPELSAAILEVFAELARAESSSSS
B6: il10ra_site1_sap_23_mot_HHH_b2_00273_000000062_0001_23_39_H_._HHH_b2_07535_0001_0000200013_0000001_0_0001 (protein)
chain: SSSSDTLEWSTKFTLEFIRQAYENGDPESAEKAIRELKEILEQAGNEELEEELEELERELSSSSS
B7: il10ra_site1_sap_10_mot_HHH_b2_04646_000000019_0001_1_20_H_._HHH_b1_08608_af2_0001_0000200016_0000001_0_0001_af2pred_0001 (protein)
chain: SSSSDEEREEVEELLEEAKHIEDPRERAHVLFRALRLALEIRDPEASKAVDKVALELFEKSSSSS
B8: il10ra_site1_normal_mot_HHH_b2_00033_000000036_0001_41_54_H_._HHH_b1_00990_0001_0000100001_0000001_0 (protein)
chain: SSSDETEEASELAAEAIRLAIRLGDEEIFQELWELFKLVIREGDPEVTERLEELLEELRERSSSS
B9: il10ra_site1_normal_mot_HHH_b2_03438_af2_000000049_0001_18_34_H_._HHH_b2_05696_0001_0000600042_0000002_0_af2pred_0001 (protein)
chain: SSSSSDEEIEREVERLIEELEEVSPEEAFELLREAAELAHELENPELSQLVLEASRRSVTSSSSS
B10: il10ra_site1_sap_8_mot_HHH_b2_01447_af2_000000258_0001_1_20_H_._HHH_b1_01734_0001_0000300050_0000001_0_0001 (protein)
chain: SSSSEEEFKRIKELIERVAEAIRRGDEEEAEKLLEEAERLAKERGDWSLRFAIELLERALSSSSS

The list shows a part of the results.

This test addresses il10ra, Q13651. Kind of test: yeast display titration.
As to B1, the “apparent Kd” value was “inactive: no binding seen”.

Regarding B2, the “apparent Kd” value was “inactive: no binding seen”.

As for B3, the “apparent Kd” value was “inactive: no binding seen”.

In the case of B4, the “apparent Kd” value is “inactive: no binding seen”.

As for B5, the “apparent Kd” value was “inactive: no binding seen”.

For B6, the “apparent Kd” value was “inactive: no binding seen”.

As to B7, the “apparent Kd” value is “inactive: no binding seen”.

In the case of B8, the “apparent Kd” value was “inactive: no binding seen”.

In the case of B9, the “apparent Kd” value was “inactive: no binding seen”.

As to B10, the “apparent Kd” value was “inactive: no binding seen”.

Source of the values: publication PMC10163288.
